Results are given in words; binding and its absence hold for the method and conditions named. In cells and extracts the contact can be indirect. Some entries that bind do so weakly or less than the wild type. Sequences can lack the tags named with a protein.
How the values were obtained:
[1] = biological target: T1, TAP-tagged Lsm3 (S. cerevisiae) (UniProt P57743); assay: co-IP; chromatin extract (released with 0.5 M ammonium sulfate) of the LSM3-TAP strain; anti-Protein A antibody on Protein A/G magnetic beads, 4 C overnight; washed with buffer X (40 mM HEPES pH 7.6, 10% glycerol, 150 mM KOAc, 1 mM DTT); blots with anti-Protein A and anti-Med1; untagged strain as negative control; two independent extracts
T1 sequence: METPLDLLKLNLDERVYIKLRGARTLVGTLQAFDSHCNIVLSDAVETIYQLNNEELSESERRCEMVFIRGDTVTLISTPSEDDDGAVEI

Protein sequences, listed by entry. Tags and fused reporters are not part of them.
UniProt Q12321: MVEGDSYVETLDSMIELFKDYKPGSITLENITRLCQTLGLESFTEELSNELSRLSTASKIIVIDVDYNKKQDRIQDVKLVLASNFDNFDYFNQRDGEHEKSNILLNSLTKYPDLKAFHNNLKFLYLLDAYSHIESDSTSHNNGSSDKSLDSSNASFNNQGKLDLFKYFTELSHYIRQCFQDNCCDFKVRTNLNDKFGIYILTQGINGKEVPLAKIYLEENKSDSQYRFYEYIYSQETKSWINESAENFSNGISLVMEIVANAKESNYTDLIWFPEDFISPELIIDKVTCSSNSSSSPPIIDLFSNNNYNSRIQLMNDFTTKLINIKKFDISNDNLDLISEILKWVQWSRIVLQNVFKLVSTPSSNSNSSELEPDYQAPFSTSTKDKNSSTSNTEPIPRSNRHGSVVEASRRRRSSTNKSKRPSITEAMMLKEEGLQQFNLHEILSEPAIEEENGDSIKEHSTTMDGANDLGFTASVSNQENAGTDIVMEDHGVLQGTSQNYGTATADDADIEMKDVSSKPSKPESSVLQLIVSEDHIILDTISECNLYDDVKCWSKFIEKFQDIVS
UniProt Q12343: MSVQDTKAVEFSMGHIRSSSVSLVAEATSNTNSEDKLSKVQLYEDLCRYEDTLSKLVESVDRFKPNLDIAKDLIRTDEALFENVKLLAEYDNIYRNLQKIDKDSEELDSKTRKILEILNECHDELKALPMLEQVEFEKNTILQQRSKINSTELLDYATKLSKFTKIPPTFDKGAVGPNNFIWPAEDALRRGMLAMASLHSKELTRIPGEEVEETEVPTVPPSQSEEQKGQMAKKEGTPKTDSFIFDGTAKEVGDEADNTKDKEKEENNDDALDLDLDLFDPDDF

[2] = biological target: T2, Flag-tagged Lsm8 (S. cerevisiae) (UniProt P47093); assay: co-IP; similar co-immunoprecipitation from chromatin of strains expressing Flag-tagged Lsm1 or Flag-tagged Lsm8; Med1 and Med4 detected
T2 sequence: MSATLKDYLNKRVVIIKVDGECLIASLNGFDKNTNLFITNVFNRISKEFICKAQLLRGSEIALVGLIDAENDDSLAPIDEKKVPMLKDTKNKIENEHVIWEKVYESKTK

[3] = biological target: T3, Flag-tagged Lsm1 (S. cerevisiae) (UniProt P47017); assay: as above
T3 sequence: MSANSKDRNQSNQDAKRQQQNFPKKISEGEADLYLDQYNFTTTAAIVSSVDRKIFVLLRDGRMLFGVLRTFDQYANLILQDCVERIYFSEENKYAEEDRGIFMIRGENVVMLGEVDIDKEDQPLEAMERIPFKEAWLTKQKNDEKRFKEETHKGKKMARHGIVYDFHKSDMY

| Substance | binding [1] | binding [2] | binding [3] |
| --- | --- | --- | --- |
| Med1 Mediator subunit (from UniProt Q12321 1-566) | binds | binds | binds |
| Med4 Mediator subunit (from UniProt Q12343 1-284) | – | binds | binds |
